# PubChem BioAssay AID504847 (National Center for Advancing Translational Sciences (NCATS), 2011)
# The chains behind the UniProt entries cited, without tags or fusion partners. Where a name states a change or a piece, a line headed by the entry shows the natural chain unless it says otherwise.
# UniProt P11473: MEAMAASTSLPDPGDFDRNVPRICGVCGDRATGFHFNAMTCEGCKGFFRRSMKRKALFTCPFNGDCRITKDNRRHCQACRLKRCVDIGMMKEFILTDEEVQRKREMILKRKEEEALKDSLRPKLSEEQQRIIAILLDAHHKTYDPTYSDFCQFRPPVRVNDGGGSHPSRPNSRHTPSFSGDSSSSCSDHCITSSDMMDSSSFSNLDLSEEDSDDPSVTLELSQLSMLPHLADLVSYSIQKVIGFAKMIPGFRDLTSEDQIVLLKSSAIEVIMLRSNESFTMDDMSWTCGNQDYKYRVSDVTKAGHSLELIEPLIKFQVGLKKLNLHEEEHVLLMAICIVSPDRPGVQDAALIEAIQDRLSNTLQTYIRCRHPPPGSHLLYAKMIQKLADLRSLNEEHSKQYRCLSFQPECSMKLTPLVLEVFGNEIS
# Values joined by “and” are separate entries in the source; they are usually repeats but may differ in a detail not shown here. Equal entries are not always repeated. In all, about 400,000 compounds went through this assay and about 3,700 (0.93%) were called active. This list was built around the results that the source calls inconclusive (neither active nor inactive); the mix of calls is not that of the screen. Calls come from the whole dose curve; as a rule, active = well fitted inhibition curve with a large enough effect; inconclusive = small, poorly fitted or top-dose-only effect, or another doubt; inactive = no such curve, though single readings can be large or run the other way. Where the call is inconclusive, the potency comes from a doubtful curve fit.
# Target: Vitamin D3 receptor (Homo sapiens) (UniProt P11473)
# Test: Inhibitors of the vitamin D receptor (VDR): qHTS
# Conditions: VDR-SRC2-3 peptide fluorescence polarization, 2 h; max response, negative = inhibition: hits give low values
# Procedure, shortened: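 After 23 nl compound addition and a short centrifugation, plates sat for 2 hours at ambient temperature; polarization of fluorescence then indicated loss of VDR binding to peptide SRC2-3.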
# % is set by controls: 0 for no effect and ±100 for the full control effect; potency is the fitted concentration of half-maximal effect.
SMILES,Potency,"max response, negative = inhibition"
COc1ccc([C@H]2CC(=O)C=C(c3ccc(Cl)c(F)c3)C2)cc1,"inconclusive: 100 µM [inhibitor, partial curve, poor fit]",–
Cn1c(O)c(N=NC(=O)c2ccccc2O)c2ccccc21,"inconclusive: 39.8 µM [inhibitor, single point]",–
NCCCCCc1nnc(SCc2ccc(F)cc2)o1,"inconclusive: 39.8 µM [inhibitor, partial curve, poor fit]",–
NCCNc1cccc2ccccc12,active: 50.1 µM,–
COCCNC(=O)CSc1c2c(nc3cc(Cl)ccc13)CCCC2,"inconclusive: 70.8 µM [inhibitor, partial curve]",–
Cc1ccc(C(=O)/C=C/c2ccc3c(c2)OCCO3)c(O)c1,"inconclusive: 89.1 µM [inhibitor, single point]",–
Cc1cc(C)c2c(c1)-c1c(ssc1=S)C(C)(C)N2C(=O)CSc1nncn1C,"inconclusive: 89.1 µM [inhibitor, single point]",–
Cn1ncc(S(=O)(=O)Cc2ccccc2)c(Br)c1=O,"inconclusive: 50.1 µM [inhibitor, partial curve, poor fit]",–
O=C(/C=C/c1ccccc1)c1cccs1,active: 11.2 µM,–
O=C1Cc2c([nH]c3ccc(Br)cc23)-c2ccccc2N1,"inconclusive: 28.2 µM [inhibitor, full curve, poor fit]",–
CCOc1ccc(-c2csc(NNC3=NCCCCC3)n2)cc1,"inconclusive: 25.1 µM [inhibitor, single point]",–
Cc1ccc(OCC(=O)Nc2ccccc2C(=O)OCc2cc(=O)n3nc(C4CC4)sc3n2)cc1,–,inactive: 11%
Cc1c(OC(C)C(=O)NCc2ccccn2)ccc2c3c(c(=O)oc12)CCC3 (centres undefined),"inconclusive: 89.1 µM [inhibitor, partial curve, poor fit]",–
Cc1noc(C)c1CSc1nc2ccccc2s1,"inconclusive: 79.4 µM [inhibitor, single point]",–
COc1ccc([C@H]2CC(=O)C=C(c3ccc(C)cc3)C2)cc1,"inconclusive: 5.01 µM [inhibitor, full curve, poor fit]",–
O=C(Cc1ccc(Cl)cc1)Nc1ccc(N2CCN(C(=O)c3ccco3)CC2)c(Cl)c1,"inconclusive: 3.16 µM [inhibitor, full curve, poor fit]",–
O=C1NN(c2ccccc2)C(=O)/C1=C/c1ccc(-c2ccc(C(=O)O)cc2)o1,"inconclusive: 63.1 µM [inhibitor, partial curve, poor fit]",–
COc1cc(C=NNc2ccc(S(=O)(=O)Nc3ccccc3C(=O)O)cc2[N+](=O)[O-])ccc1O,"inconclusive: 89.1 µM [inhibitor, single point]",–
Fc1ccc(Nc2ncncc2-c2ccccc2C(F)(F)F)cc1,"inconclusive: 89.1 µM [inhibitor, partial curve, poor fit]",–
CCOC(=O)c1c(S(=O)(=O)N2CCC(C(=O)N3CCN(c4cccc(C)c4C)CC3)CC2)c(C)n(C)c1C,–,inactive: 1.03%
Nc1nc(-c2cc(O)ccc2[N+](=O)[O-])cc(-c2ccccc2)c1[N+](=O)[O-],–,inactive: -4.85%
CC(C)(C)Nc1nc(Cl)nc(N(C#N)CN2C(=O)c3ccccc3S2(=O)=O)n1,"inconclusive: 35.5 µM [inhibitor, single point]",–

SMILES,Potency,"max response, negative = inhibition"
CCOC(=O)C1=C(C)NC2(O)c3ccccc3C(=O)C12O (centres undefined),"inconclusive: 44.7 µM [inhibitor, partial curve, poor fit]",–
CCOc1ccc(N=C(/C(C(=O)C(=O)N2CCOCC2)=C(/O)c2ccccc2)c2ccccc2)cc1,"inconclusive: 79.4 µM [inhibitor, partial curve, poor fit]",–
N#C/C(=C\c1ccc(-c2ccccc2C(=O)O)o1)c1nc2ccccc2[nH]1,"inconclusive: 89.1 µM [inhibitor, single point] and inconclusive: 17.8 µM [inhibitor, partial curve]",–
CCc1ccc(CNC(=O)c2ccc(CSc3nc4ccncc4n3Cc3ccc(OC)cc3)cc2)cc1,–,inactive: 6.64%
CCCNS(=O)(=O)c1ccc(CCC(=O)N2CCCCC2)cc1,"inconclusive: 31.6 µM [inhibitor, single point]",–
CCCc1cc(C(=O)Nc2ccc(OC)cc2[N+](=O)[O-])cs1,–,inactive: -12.3%
CCCCCCCCOC(=O)c1cc([N+](=O)[O-])c(Sc2ncnc3nc[nH]c23)c([N+](=O)[O-])c1,"inconclusive: 44.7 µM [inhibitor, partial curve, poor fit]",–
O=C(CCCCn1c(=O)c2ccccc2n(Cc2ccc(Cl)cc2)c1=O)NCc1ccccc1Cl,–,inactive: -5.65%
COc1ccc(NC(=O)/C(=C/c2ccc3c(c2)OCO3)NC(C)=O)cc1,–,inactive: -4.33%
Cc1ccc(NC(=O)CSCc2cnn(-c3ccccc3)c2-n2cccc2)c(C)c1,–,inactive: 2.18%
CCn1c(SCC(=O)c2ccc(Cl)cc2)nnc1-c1ccoc1C,"inconclusive: 56.2 µM [inhibitor, partial curve, poor fit]",–
COC1=CC(=O)c2c(ccc3ncnc(N)c23)C1=O,"inconclusive: 56.2 µM [inhibitor, partial curve, poor fit]",–
CC(C)CCCC(C)CCCC(C)CCCC(C)C(=O)O (centres undefined),"inconclusive: 63.1 µM [inhibitor, single point]",–
CCOc1ccc(C(c2c(O)nc(SC)[nH]c2=O)c2c(O)nc(SC)[nH]c2=O)cc1,"inconclusive: 22.4 µM [inhibitor, full curve, poor fit]",–
O=[N+]([O-])c1cccc(NC(=S)N2CCc3ccccc3C2)c1,"inconclusive: 25.1 µM [inhibitor, partial curve, poor fit]",–
COc1ccc(/C=C2\N=C(C)OC2=O)cc1OC,"inconclusive: 39.8 µM [inhibitor, partial curve]",–
CN1CCN(c2cc(-c3ccoc3)ncn2)CC1,"inconclusive: 50.1 µM [inhibitor, partial curve]",–
CCCCOC(=O)C1=C(C)NC(=O)NC1c1cc2c(cc1Br)OCO2 (centres undefined),"inconclusive: 35.5 µM [inhibitor, single point]",–
CCOC(=O)C(=O)C1=C(N2CCOCC2)/C(=C\c2ccc(F)cc2)CC1,"inconclusive: 10 µM [inhibitor, partial curve, poor fit]",–
COc1ccc(C(=O)/C=C/c2ccccc2C(F)(F)F)cc1,"inconclusive: 2.82 µM [inhibitor, partial curve, poor fit]",–
CCCS(=O)(=O)c1ncc(Cl)c(C(=O)N2CCN(c3ccc(OC)cc3)CC2)n1,"inconclusive: 22.4 µM [inhibitor, single point]",–
O=C1OC[C@@H]2CCCN2C(=O)[C@@H](CC(=O)N(CCO)Cc2ccccc2)C/C=C\CC[C@H]1Cc1ccc(F)cc1,–,inactive: 8.09%

# Quoted from above, two compounds:
SMILES,Potency,"max response, negative = inhibition"
COC1=CC(=O)c2c(ccc3ncnc(N)c23)C1=O,"inconclusive: 56.2 µM [inhibitor, partial curve, poor fit]",–
CC(C)CCCC(C)CCCC(C)CCCC(C)C(=O)O (centres undefined),"inconclusive: 63.1 µM [inhibitor, single point]",–

# Remaining list, next part:

SMILES,Potency,"max response, negative = inhibition"
CCCCNC(=O)CCC(=O)NNc1nc2ccccc2c2nc(-c3ccccc3)nn12,–,inactive: -1.43% and inactive: -16.2%
CCOC(=O)C1CCN(C(=O)Nc2ccc3nc(-c4ccco4)c(-c4ccco4)nc3c2)CC1,"inconclusive: 79.4 µM [inhibitor, single point]",–
Cc1ccc(NC(=O)CSc2nnc3c(n2)[nH]c2ccccc23)cc1,–,inactive: 3.85%
O=C1/C(=C\c2cccs2)CCC/C1=C/c1cccs1,active: 39.8 µM,–
CCCCN(C(=O)c1ccccc1Br)C1CCS(=O)(=O)C1 (centres undefined),"inconclusive: 50.1 µM [inhibitor, partial curve]",–
CSc1ncccc1C(=O)OCC(=O)N(C)C,"inconclusive: 89.1 µM [inhibitor, partial curve, poor fit]",–
Cc1ccc(N=Cc2cccc(O)c2O)c(C)c1,active: 20 µM,–
CCN(CC)c1ccc(N=Cc2cc(Br)ccc2O)cc1,"inconclusive: 3.98 µM [inhibitor, full curve, poor fit]",–
O=C(CNC(=O)c1sc2ccccc2c1Cl)Nc1ccccc1F,"inconclusive: 89.1 µM [inhibitor, single point]",–
O=C1c2ccccc2CC[C@H]1CNCCc1ccc(O)cc1,active: 3.55 µM,–
CCOc1ccccc1NC(=O)Nc1nnc(N(C)Cc2ccccc2)s1,–,inactive: -4.19%
O=C(/C=C/c1ccc2c(c1)OCO2)c1cccs1,active: 20 µM,–
Cc1ccc(C(Nc2ccccn2)c2ccc3cccnc3c2O)cc1 (centres undefined),"inconclusive: 11.2 µM [inhibitor, partial curve]",–
CCOC(=O)n1c(=O)n(Cc2cccc(C)c2)c2ccccc21,"inconclusive: 56.2 µM [inhibitor, partial curve, poor fit]",–
Cc1ccccc1NC(=O)c1c(NC(=O)C(C)Oc2cccc(Cl)c2)sc2c1CCCC2 (centres undefined),"inconclusive: 79.4 µM [inhibitor, partial curve]",–
Cc1ccc(N/N=C2\CS(=O)(=O)N(C)c3ccsc32)cc1,"inconclusive: 89.1 µM [inhibitor, single point]",–
O=C(NCc1ccccc1Cl)C(=O)c1cn(CC(=O)N2CCOCC2)c2ccccc12,–,inactive: 15.2%
O=C1N(Cc2cccnc2)C[C@@H]2C[C@@H](c3cccc(OCc4ccccc4)c3)N3CCC[C@@]123,–,inactive: 3.05%
COc1ccccc1N/C=C/c1onc(C)c1[N+](=O)[O-],"inconclusive: 100 µM [inhibitor, partial curve, poor fit]",–
CCC1(c2ccccc2)NC(=S)N(c2ccc(C)cc2)N1 (centres undefined),"inconclusive: 79.4 µM [inhibitor, partial curve, poor fit]",–
